Assay results published in PubChem BioAssay AID1347423 (Functional Genomics Laboratory (NCATS/FGL), 2020).
The campaign covered roughly 52,000 sequences. About 210 (0.4%) were called active.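 Rule for the calls: active = gene whose silencing raises cell survival under the drug, median off-target-corrected z-score across its silencing RNAs 2 or more; inactive = the rest.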 Some of the results follow.

Assay: Resistance to Poly (ADP-Ribose) Polymerase inhibitor: Gene Identification via Genome-wide siRNA Screen
Settings: mouse BRCA2 R2336H ES cells, olaparib, CellTiter-Glo viability; hits give high values
Procedure, shortened: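 Mouse BRCA2 R2336H ES cells were reverse-transfected with siRNA (20 nM final), treated at 48 h with 500 nM olaparib, and read by CellTiter-Glo after 72 h. Scores: MAD-based z per siRNA, median per gene, seed off-target correction.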

Row | Sequence | z-score
1 | CCUUAGAAACACUCUUAUUTT against BC031901 | inactive: 0.1
2 | GGUAAAAAUGGAUUAGUCGTT against Cyp2j5 | inactive: -0.37
3 | GCUAACCAGUAACUUCGAATT against 4933401K09Rik | inactive: 1.35
4 | GGCUGUUUUCCUGUGUAAGTT against Ppt1 | inactive: 0.0471
5 | GGAACUGGACUUAUUCCACTT against Wnt5b | inactive: -0.238
6 | GGAGCUGUAAAGGCUACAATT against Sulf2-pending | inactive: 0.433
7 | GCUGAUAAAUCUGAACUACTT against Dhrs7 | inactive: 1.73
8 | GGUGUGCAUCACCUUUGACTT against Lgals1 | inactive: -0.315
9 | GGUCUACGAGUUUAUUGCUTT against Phc1 | inactive: 0.722
10 | GCAGAAAGGCUGCUUCGAUTT against Tnfaip8l3 | inactive: -0.277
11 | GGACUACCACAGCCUCUUCTT against Pxn | inactive: 1.02
12 | CCACUAGGAGUUUACUCCGTT against 4930563A03Rik | inactive: -1.22
13 | GGUCUUGCAUGUCUCUGAGTT against 2900010D03Rik | inactive: -1.37
14 | CCUGCUACCUGCUGUAUUATT against LOC245297 | inactive: -1.54
15 | GGUGUACAGAUCUGUCUGGTT against Dkk1 | inactive: 0.57
16 | GCCUACCCGAGGAAACUUUTT against Spatc1 | inactive: 0.497
17 | CCAAGAACUACCGUGAGUATT against Uts2r | inactive: 1.74
18 | GCGGGCUGUCGUUAUGAUGTT against Gpr103 | inactive: -0.403
19 | CGAACUUCAAGACUGUGAUTT against 4732496G21Rik | inactive: -1.34
20 | CCUCAUUGAGUUUUGAAGATT against 6530401N04Rik | inactive: 0.814
21 | GCGGUUCCAAGAUUGUUGUTT against Armc8 | inactive: 0.548
22 | GGUACAACAGACUAUGCAATT against Snai1 | inactive: -0.0762
23 | GGAUAAAGUUUAAGGAUGGTT against V1rb7 | inactive: 0.279
24 | GGCAUGUUACAUUUAUCAUTT against Cdkal1 | inactive: 1.57
25 | GGAACACAGAGUUAACUUATT against Ifi35 | inactive: 0.0955
26 | GCUUGACAAUAAAUCCCACTT against 4732418C07Rik | inactive: -0.483

Row | Sequence | z-score
27 | GGAGCACAAAGACAUUUUUTT against Lrrn1 | inactive: -0.127
28 | GGCAAAGACACCCAAAAAUTT against Hcfc1 | inactive: -0.864
29 | GGUCAGAGCUCUGGACAAATT against Hsd3b1 | inactive: -0.974
30 | GGAUUUACCAGAGGAAAAUTT against Otub2 | inactive: 0.178
31 | GGUAACUGAAACUCAAUUATT against 2210012G02Rik | inactive: 1.13
32 | GGUGAACUGGUCUACAACATT against Muc2 | inactive: -2.79
33 | GGAUGUGCCUCGGUUGGAUTT against Gulo | inactive: 0.2
34 | GCAGAAACGACUUCGAAACTT against Cdc20 | inactive: -0.356
35 | CCUUAAUUUCGACAUGACUTT against Za20d2 | inactive: 1.19
36 | GGACGGUAAAGUGAAUCAUTT against Tas2r105 | inactive: 1.17
37 | CCAUUUACCCAUGCGGCUATT against Creb3l2 | inactive: -1.95
38 | GGGCAGAGUGGAGUAUCUGTT against Cbx4 | inactive: 0.942
39 | GCUCCUCGCACUCUUUUGGTT against Olfr551 | inactive: 0.317
40 | CCCACCUCAACAUGAGAACTT against Dfna5h | inactive: 0.556
41 | GGACAAAACAUCUUAGAUGTT against Amacr | inactive: 0.172
42 | GGAAGAAUAUUGAGGAGAATT against Tnni2 | inactive: -0.693
43 | GGUAGUGCUUCUCAUAUUATT against Olfr1437 | inactive: -1.01
44 | GCUUGUGGUUUUUCACAUCTT against Mrgprb3 | inactive: 1.81
45 | GCCAUGACUAUGUUUUCCGTT against Siat7a | inactive: -0.355
46 | GGAAUGAUGACUCCUCCUGTT against A530090P03Rik | inactive: -2.08
47 | CGGAUUGAUCCUAAUGUAUTT against Igf1r | inactive: 1.31
48 | CCGGCAGAAUAAGAAAGUATT against Tnrc15 | inactive: -1.29
49 | GGAGAUUAUAGCUCAAGAUTT against Bfsp1 | inactive: 1.44
50 | GUUUUGUUUAUUCAGCCAGTT against Olfr1002 | inactive: 1.15
51 | GGUGAAACGGGACAUGCAATT against 1200003O06Rik | inactive: -0.00921
52 | GCUUGUAGAAACCUUUUUGTT against Tm4sf1 | inactive: -0.817

Row | Sequence | z-score
53 | GCCUCCAGUAUCAUAAUUGTT against Antxr2 | inactive: 1.33
54 | GGUUGUUGAAAAGUCUUUATT against Rasa2 | inactive: 1.74
55 | CCACCAUUUAACUCGGCCUTT against Prkaa1 | inactive: 0.521
56 | GGAAAUAUGAUAGAAUGCCTT against C87499 | inactive: 0.994
57 | GGAGAAAAACUUCUUGGUATT against Cd96 | inactive: -0.0585
58 | GGCAAUUUCACACUAAUCATT against 1110061O04Rik | inactive: 1.39
59 | CCAUACAUAUAGACAAUCCTT against LOC278676 | inactive: 0.742
60 | CCUACAUCCUUACAUCAUUTT against 4921511C20Rik | inactive: 0.885
61 | GUGCUGCGUGUGUCAAUGUTT against Asb11 | inactive: -0.28
62 | GGGCUCUGAGGAUACCAUUTT against Hck | inactive: -0.813
63 | GCAUACAGCUCAACAGUCATT against Padi2 | inactive: -0.374
64 | GGAUAAGAUAGUGAAAGAATT against Uble1b | inactive: -3.08
65 | GCCGAGAAUAGAAGACUCATT against 2610528A15Rik | inactive: -2.36
66 | GCACAGUCAACUAACUGCGTT against Apom | inactive: 0.561
67 | GACUUUCAUUCACAUAAUGTT against V1rc3 | inactive: -0.392
68 | CGUGCUGUAUGGCAAAGUUTT against Bst1 | inactive: 0.346
69 | GGCACCUAACGACUUCAACTT against Pygm | inactive: 0.366
70 | GGGCCUUUCACUUUUAUUATT against Tmprss2 | inactive: -0.839
71 | GGCACGAUAGUUUUUGAGATT against Myo1h | inactive: 0.366
72 | AGUUCCCACCAAAAACUUATT against LOC435565 | inactive: 0.349
73 | GGCCAUGGAGAUCAUGUUATT against 9430071P14Rik | inactive: 0.669
74 | GGAGUUAGAAUUGAACCUUTT against Mr1 | inactive: -1.04
75 | GCAUCAUUCCUACCGAUGUTT against Ly6g5b | inactive: -0.228
76 | GGAAAACAACAUGAUCGUGTT against BC004012 | inactive: 0.454
77 | GCAGAUCCGAGACAAGUAUTT against Cplx2 | inactive: -2.94
78 | GAGAAAUACCAUUUCCUACTT against Olfr497 | inactive: 0.595

Numbers 70 through 76, reprinted for reference:
Row | Sequence | z-score
70 | GGGCCUUUCACUUUUAUUATT against Tmprss2 | inactive: -0.839
71 | GGCACGAUAGUUUUUGAGATT against Myo1h | inactive: 0.366
72 | AGUUCCCACCAAAAACUUATT against LOC435565 | inactive: 0.349
73 | GGCCAUGGAGAUCAUGUUATT against 9430071P14Rik | inactive: 0.669
74 | GGAGUUAGAAUUGAACCUUTT against Mr1 | inactive: -1.04
75 | GCAUCAUUCCUACCGAUGUTT against Ly6g5b | inactive: -0.228
76 | GGAAAACAACAUGAUCGUGTT against BC004012 | inactive: 0.454

Following part:

Row | Sequence | z-score
79 | GCCAUCUUAAACAUGCCUGTT against Tdpoz2 | inactive: 0.541
80 | GGCUGUCUUGUCCAAAUGUTT against Olfr1357 | inactive: -0.104
81 | CCUCUACUGUACUUAUACATT against Cpn2 | inactive: -0.288
82 | GCCACACAAAAUUUGGCAUTT against LOC382109 | inactive: 1.23
83 | CCUAAACUGUAGUUGUCUGTT against S100a14 | inactive: 1.1
84 | CCAAUGAGUUAAUCACCUUTT against Olfr1135 | inactive: 1.01
85 | CCGAAUCCUAUAUUUGACATT against Ptprj | inactive: -1.28
86 | GGACAACUAGCUUCUUGUATT against Dnmt2 | inactive: 0.477
87 | GGGCCUGGAUUACUUACACTT against Srpk1 | inactive: 1.32
88 | GGAGUUACCAAUUUUGAAATT against 0610040B21Rik | inactive: -0.519
89 | GGGAUAGCUCUUAUUAUUUTT against Man2b2 | inactive: 0.0226
90 | GCUGUACUUCUAGCUCGGATT against Il17rc | inactive: -1.72
91 | GCCCUGAAAUGAAACUGCUTT against 5530601I19Rik | inactive: 0.618
92 | GCUGUACAUUCCGAUUAUCTT against Olfr1134 | inactive: 1.4
93 | GCAUUCUCAAGUGAGGCGUTT against Atp5k | inactive: 0.484
94 | GGAGAUGGCUUAAAUAAAUTT against Cox6a1 | inactive: 0.136
95 | GCCAGUCCAAAGCUUCAAATT against Eif3s9 | inactive: 1.44
96 | GGAGGAAAUCAGUGCAGAATT against Luc7l | inactive: -3.18
97 | CCAAUCACCAGAGACUAACTT against 9630044O09Rik | inactive: 1.53
98 | GGACCUUUUUUGUUCAAAATT against Rasd1 | inactive: 0.259
99 | GGAUCUCUUCGACUAUAUCTT against Pim2 | inactive: 0.669
100 | GGCCCUAUUUGGCUACGUUTT against Dgat2 | inactive: 2.06
101 | GGGAACUACGCACAACGAATT against Hist1h2aa | inactive: 0.496
102 | CCCUGAAUAAGGCUGAUCUTT against Krt1-2 | inactive: -0.75
103 | GGUGAUCAACUUCCUGAAATT against Hdac11 | inactive: -0.16
104 | GGCCAUACACCUGUGACAUTT against Osr2 | inactive: -0.202
